The target in this experiment is protease-activated receptor-3 (human (endogenous in EA.hy926)) (UniProt O00254). Briefly: co-IP; EA.hy926 cells, untreated or treated with 100 nM TFG or TFMG for 24 h, lysed in RIPA buffer; anti-PAR-3 antibody overnight at 4 °C, magnetic beads 4 h at 4 °C; western blot with anti-PAR-1 antibody.

Chains of the proteins cited; added tags and fusions are not shown. Residues count along the entry.
UniProt O00254, residues 39-374: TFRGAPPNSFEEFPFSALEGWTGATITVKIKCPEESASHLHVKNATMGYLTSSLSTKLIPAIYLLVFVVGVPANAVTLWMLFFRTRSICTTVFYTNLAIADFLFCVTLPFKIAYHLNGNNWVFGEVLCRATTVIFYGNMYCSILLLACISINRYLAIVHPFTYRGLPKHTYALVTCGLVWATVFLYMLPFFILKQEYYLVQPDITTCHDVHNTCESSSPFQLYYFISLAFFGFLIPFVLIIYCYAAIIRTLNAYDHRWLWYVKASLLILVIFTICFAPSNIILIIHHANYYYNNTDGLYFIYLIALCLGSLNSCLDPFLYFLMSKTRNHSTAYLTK

These are yes or no findings as the source states them, for the method shown. Binding seen in cells or lysates may run through a third protein. Some entries that bind do so weakly or less than the wild type.

B1: protease-activated receptor-1 (receptor, UniProt P25116 42-425)
chain: SFLLRNPNDKYEPFWEDEEKNESGLTEYRLVSINKSSPLQKQLPAFISEDASGYLTSSWLTLFVPSVYTGVFVVSLPLNIMAIVVFILKMKVKKPAVVYMLHLATADVLFVSVLPFKISYYFSGSDWQFGSELCRFVTAAFYCNMYASILLMTVISIDRFLAVVYPMQSLSWRTLGRASFTCLAIWALAIAGVVPLLLKEQTIQVPGLNITTCHDVLNETLLEGYYAYYFSAFSAVFFFVPLIISTVCYVSIIRCLSSSAVANRSKKSRALFLSAAVFCIFIICFGPTNVLLIAHYSFLSHTSTTEAAYFAYLLCVCVSSISCCIDPLIYYYASSECQRYVYSILCCKESSDPSSYNSSGQLMASKMDTCSSNLNNSIYKKLLT
As to B1, the binding entry was “binds”.

Values taken from paper PMC7489044.
